Experimental data reported in patent US5128331A, “Method for lowering plasma lipid levels or blood pressure” (priority 1988, dated 1992).

Tested on: spontaneously hypertensive rat (SHR)
Test: Oral hypotensive activity in spontaneously hypertensive rats (SHR)
Type: in vivo
Conditions: 2 hours post dose, Table 5
Experimental: The spontaneously hypertensive rat (SHR) is a well established animal model of human arterial hypertension.
In screening experiments various gem-diphosphonates were dissolved in Tween-80 and administered orally to SH rats. Blood pressure was monitored hourly using a tailcuff method.

COC(=O)C1=C(C)NC(C)=C(C(=O)OC)C1c1ccccc1[N+](=O)[O-] [Nifedipine, reference compound]
Percent change in blood pressure: -47%
